Results are given as percent effect.
The record does not define 0% and 100%; most values in the screen are far below 50% and negative numbers occur (in some assays of this library far below -100).
This is an unselected part of the compounds tested.

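Whole-parasite assay of Trypanosoma brucei over 72 hours; the read-out is not stated. Tested at 30 µM. Higher reads as stronger inhibition (inferred: compounds with an IC50 in retests scored well above the rest). Values scatter widely below zero; nearly all retest evidence comes from the higher of the two concentrations used. Of about 64,000 compounds tested this way, about 940 (1.5%) reached 50% or more in at least one test.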

For CCCC(=O)N(C)Cc1cccc(OC(C)C)c1 the result was -81.45%. With O=C(NCCCN1CCOCC1)Nc1cnc2cc(Cl)ccc2c1O the screen gave -31.2%. CC1CN(Cc2ccccc2Cn2cccn2)CCN1C (stereo not given) gave -103%. N#Cc1cccnc1N1CCCN(CC(=O)N2CCNC(=O)C2)CC1 read -3.001%.

CN(Cc1nc(C2CC2)no1)C1CCCN(c2cccnn2)C1 (stereo not given) read -35.24%. With COc1ccc(C(=O)N2C[C@@H](CN3CCOCC3)[C@@H](CO)C2)c(C)c1 the screen gave 30.36%. Result for CC1(C)COCCN1C(=O)c1ccc(Cn2cncn2)cc1 was -11.07%. CCOc1ccc(CN(C)C(=O)c2nc(N3CCCC3)ncc2Cl)cc1 gave -33.29%.

O=C(CN1CCN(c2ccc3nncn3n2)CC1)NC1CCCCC1 read 0.7498%. CC1CCC(N2Cc3nc(N)ncc3C2=O)CC1 (stereo not given) gave 59%. With CC(O)CN1CCN(C(=O)c2cc(Cl)cc3cccnc23)CC1 (stereo not given) the screen gave 3.963%. For CC(=O)NCC(=O)N1CCC2(CC1)NC(=O)CC2c1cccnc1.O=C(O)C(F)(F)F (stereo not given) the result was -18.51%.

With c1cncc(CN2CCCC3(COCCN(c4nccs4)C3)C2)c1 (stereo not given) the screen gave -1196%. For CCOC(C)c1nc(COc2nc(C)no2)cs1 (stereo not given) the result was -56.43%. With Cc1ccccc1C(=O)NCc1ccc(N2CCNC(=O)C2)c(F)c1 the screen gave -0.1447%. Cc1cc(C)cc(NCCC(=O)NC2CCN(C(=O)C3CC3)CC2)c1 read -2.186%.

Result for Cc1ccc(C)c(NC(=O)C(C)N2CCCN(c3nccs3)CC2)c1 (stereo not given) was 37.38%. Result for Cc1ccccc1OCCC(=O)N(C)Cc1c(C)noc1C was -5.084%. [H][C@@]12CCN(S(C)(=O)=O)C[C@]1(c1nnc(C)o1)CCO2 gave -8.44%. CN(Cc1csc(-c2cccs2)n1)CC(O)CO (stereo not given) gave -95.54%.

For Cc1ncsc1C(=O)NC1CCN(CCC(N)=O)CC1 the result was 5.947%. CCC(CC)NC(=O)Cn1nc(C)nc1-c1ccccc1 gave -4.858%. Cc1csc(CN2CC(CO)Oc3ccccc32)n1 (stereo not given) gave -58.55%. COCc1nc2ncc3c(=O)n(-c4cccc(OC)c4)ccc3n2n1 gave -49.03%.

For Cn1nc(C(=O)N2CCC(Oc3ccc(C#N)cn3)CC2)ccc1=O the result was 1.074%. Result for CC(O)CN1CCC(CN(C)Cc2cccc(C(=O)N(C)C)c2)CC1 (stereo not given) was -41.3%. For COc1ccc(CN2CCN(Cc3nccn3C)C(C)C2)cc1F (stereo not given) the result was -29.88%. COc1cccc(CCC(=O)Nc2c(C)nn(C)c2C)c1OC gave -66.7%.

CCCn1ncc(C(=O)N2CCC(N3CCCCC3)CC2)c1C read -105.3%. Result for CC(C)Nc1nc2c(cc1C(=O)NCC1CC1)CCN(CC1CC1)CC2.O=C(O)C(F)(F)F.O=C(O)C(F)(F)F was -14.4%. Cc1ncsc1CNc1cccc(OCCN2CCCC2)c1 gave -35.64%. With Cc1ccc(C(=O)N2CCC(Oc3c(C)cccc3C)CC2)c(=O)[nH]1 the screen gave 6.041%.

CC(C)c1cc(NC(=O)CN2CCC(N3CCCCC3)CC2)on1 gave 5.583%. c1ccc(-c2nc(CN3CCn4c(nnc4C4CC4)C3)cs2)cc1 gave -13.99%. O=C(NCCCN1CCOCC1)c1cc(-c2ccccc2)[nH]n1 gave -18.6%. For CC(C)CC(C)NCCCN1CCCN(C)CC1 (stereo not given) the result was -65.74%.

With CC(C)N1CCC(Cc2cncc(-c3cc(F)ccc3C(=O)O)n2)C1 (stereo not given) the screen gave -8.909%. Result for CCc1oc(C(=O)N[C@@H]2c3ccccc3C[C@@H]2O)cc1CN1CCCC1 was -56.07%. With C[C@@H]1CN(Cc2ccc(-c3ccncc3)cc2F)CC(C(N)=O)O1 (stereo not given in full) the screen gave -12.1%. With CCc1nc(CN2CCCC(N(C)CCn3cncn3)C2)no1 (stereo not given) the screen gave -26.44%.

Cc1nc2c(c(NCC(c3cccnc3)N3CCOCC3)n1)CCNC2 (stereo not given) gave 2.253%. With O=C1CCc2cc(S(=O)(=O)NCc3cc4n(n3)CCNC4)ccc2N1 the screen gave -28.55%. For CN(Cc1cccc(-n2cccn2)c1)c1cc(N2CCCC2)nc(N)n1 the result was 7.651%.

Once more, the final 3:

- Cc1nc2c(c(NCC(c3cccnc3)N3CCOCC3)n1)CCNC2 (stereo not given) | 2.253%
- O=C1CCc2cc(S(=O)(=O)NCc3cc4n(n3)CCNC4)ccc2N1 | -28.55%
- CN(Cc1cccc(-n2cccn2)c1)c1cc(N2CCCC2)nc(N)n1 | 7.651%

Source: ChEMBL document CHEMBL3988442, “University of Dundee, Small-Polar-MMV Screening Library” (2021).